Publication PMC9606255
No constants are given. Whether binding was seen depends on the method and setting. In cells and extracts the contact can be indirect. For part of these data: Binding can be weak; no strength is given. For part of these data: Sequences can lack the tags named with a protein. Each block holds one molecule with its values, some of them ahead of it.

Sequences of proteins named here, by UniProt entry; tags and fusion partners are left off. A change or cut given only in a name is not applied to a line headed by its entry.
UniProt Q9C0C2: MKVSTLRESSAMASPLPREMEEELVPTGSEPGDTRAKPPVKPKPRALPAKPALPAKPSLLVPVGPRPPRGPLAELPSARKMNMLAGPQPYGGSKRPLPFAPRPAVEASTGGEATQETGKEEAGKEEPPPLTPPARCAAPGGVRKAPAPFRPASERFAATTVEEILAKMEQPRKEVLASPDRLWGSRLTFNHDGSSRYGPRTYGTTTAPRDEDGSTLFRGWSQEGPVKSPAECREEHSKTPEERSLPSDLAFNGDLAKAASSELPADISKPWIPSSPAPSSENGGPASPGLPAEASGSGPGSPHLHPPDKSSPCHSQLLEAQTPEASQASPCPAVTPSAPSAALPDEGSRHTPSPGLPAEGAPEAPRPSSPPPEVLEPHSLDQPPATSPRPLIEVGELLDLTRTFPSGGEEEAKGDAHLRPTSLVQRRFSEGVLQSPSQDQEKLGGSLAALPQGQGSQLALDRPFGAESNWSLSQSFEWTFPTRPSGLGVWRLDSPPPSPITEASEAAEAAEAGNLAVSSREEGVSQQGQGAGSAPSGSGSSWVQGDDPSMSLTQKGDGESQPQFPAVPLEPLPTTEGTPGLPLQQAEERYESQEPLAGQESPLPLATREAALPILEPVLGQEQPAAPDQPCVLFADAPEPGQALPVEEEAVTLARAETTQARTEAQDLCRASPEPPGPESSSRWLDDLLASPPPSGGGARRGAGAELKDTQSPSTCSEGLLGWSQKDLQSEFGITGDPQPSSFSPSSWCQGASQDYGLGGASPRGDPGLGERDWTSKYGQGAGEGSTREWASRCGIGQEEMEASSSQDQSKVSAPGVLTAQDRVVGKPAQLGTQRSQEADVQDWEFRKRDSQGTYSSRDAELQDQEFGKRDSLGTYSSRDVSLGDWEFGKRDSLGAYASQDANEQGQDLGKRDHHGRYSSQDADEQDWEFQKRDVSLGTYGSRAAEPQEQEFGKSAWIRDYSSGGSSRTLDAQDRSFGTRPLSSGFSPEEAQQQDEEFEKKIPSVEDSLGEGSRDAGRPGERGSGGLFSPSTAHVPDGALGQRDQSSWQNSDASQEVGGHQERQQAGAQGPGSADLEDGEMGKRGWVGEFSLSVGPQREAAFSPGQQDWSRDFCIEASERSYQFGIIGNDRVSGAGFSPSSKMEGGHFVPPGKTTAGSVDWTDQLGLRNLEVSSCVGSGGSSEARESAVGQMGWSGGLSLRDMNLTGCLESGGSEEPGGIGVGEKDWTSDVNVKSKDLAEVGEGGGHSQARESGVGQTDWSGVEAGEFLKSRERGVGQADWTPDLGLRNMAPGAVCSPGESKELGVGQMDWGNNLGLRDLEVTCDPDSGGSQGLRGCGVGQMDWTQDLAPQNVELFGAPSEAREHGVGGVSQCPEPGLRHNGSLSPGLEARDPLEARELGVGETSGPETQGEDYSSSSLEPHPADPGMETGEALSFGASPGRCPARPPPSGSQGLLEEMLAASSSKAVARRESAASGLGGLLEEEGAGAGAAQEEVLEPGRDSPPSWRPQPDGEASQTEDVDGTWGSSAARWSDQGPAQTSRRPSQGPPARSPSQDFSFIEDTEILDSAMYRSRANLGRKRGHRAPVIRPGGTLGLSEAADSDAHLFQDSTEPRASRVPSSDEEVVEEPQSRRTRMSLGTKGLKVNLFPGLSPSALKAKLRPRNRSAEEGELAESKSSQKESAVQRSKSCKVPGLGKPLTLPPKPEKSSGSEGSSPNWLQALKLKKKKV

Experiments:
Assay in all cases: co-IP; HEK293T (legend: HEK293) cells transfected with Flag-TAB182 and HA-FHL2 plasmids (wild type or mutants) for 48 h, co-IP and western blot
Flag-TAB182-WT (human) = Flag-TAB182-WT (human) (UniProt Q9C0C2)
Flag-TAB182-Δ1 (human) = Flag-TAB182-Δ1 (human) (UniProt Q9C0C2)
Flag-TAB182-Δ2 (human) = Flag-TAB182-Δ2 (human) (UniProt Q9C0C2)

binding (Flag-TAB182-WT (human)): no binding
Molecule: FHL2-Δ2 (from UniProt Q14192)

binding (Flag-TAB182-Δ1 (human)): no binding
binding (Flag-TAB182-Δ2 (human)): binds
B1: HA-FHL2 (protein, UniProt Q14192 1-279)
chain: MTERFDCHHCNESLFGKKYILREESPYCVVCFETLFANTCEECGKPIGCDCKDLSYKDRHWHEACFHCSQCRNSLVDKPFAAKEDQLLCTDCYSNEYSSKCQECKKTIMPGTRKMEYKGSSWHETCFICHRCQQPIGTKSFIPKDNQNFCVPCYEKQHAMQCVQCKKPITTGGVTYREQPWHKECFVCTACRKQLSGQRFTARDDFAYCLNCFCDLYAKKCAGCTNPISGLGGTKYISFEERQWHNDCFNCKKCSLSLVGRGFLTERDDILCPDCGKDI
